## Results from one PubChem assay

From PubChem BioAssay record AID1159506 (NCATS, 2015).

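Genome-wide siRNA knockdown in TC32 Ewing sarcoma cells, comparing luciferase light from an NR0B1-promoter reporter with a CMV-promoter reporter 48 hours after transfection. Each siRNA was applied at 20 nM. A z-score of the log NR0B1-over-CMV signal, less the median of siRNAs with the same seed; more negative means a stronger specific loss of the NR0B1 reporter.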

The strongest results of the screen are mostly left out here. Sequences are the guide (antisense) strand, without overhang.

siRNA | gene | seed-corrected z-score
AUUCUCACAAAAUAAGCCC | ZBTB6 | 1.436
UGAUGGAAUAGCCGUAGGC | MPC1L | 0.007475
UUAGGUUGCUCCUCUUUCC | FAM193A | 1.417
AACUGUUGAAGUAACCCUC | ARRDC1 | -0.5175
UUGCUGAUCACCCUGGUCG | LOC646484 | 0.7022
UGAGUUAAGACACUUUAGC | DIRC1 | -0.07321
UUAGGAGUCUGACCUCUCA | FAU | 1.915
AAAAGUGCUACCAUGGUCA | NXF2 | 0.8211
UAUGAUACGGCUCUGUUUC | ZC3H18 | -1.997
UAUCUUGAUAGUAAUUCUU | NOP16 | 0.702
UACUUUACACUCAUGAUCC | DDTL | 0.301
UUUGGAACCUGACUCCUGA | DUXAP10 | 0.1301
UAUGGACUGUCCGUUGUGG | CYP17A1 | -0.3009
UCGGUAACAUCUAUGGUCC | DHX30 | 0.009226
UCUGGUGUUGAAACUAAGG | SFT2D1 | 0.2174
AAACCUUAUGCUAUGUUUC | WRNIP1 | 0.1251
UUCAUGUUCUGCGUGGGCG | SS18L1 | -0.1514
UGAGUUCUCACGUGUACCC | ZNF177 | -0.9984
UAGCUGUUCAACACAGGCU | PLA2G2C | 0.3374
UGAUCUUCAAAUCUCGCUC | MYH11 | -0.1751
UACUUGUGCAAGAUAGAGC | EIF2A | -0.7155
UUCUAUCCCAACAACUUUC | SLC35B1 | 0.834
AAUGGUAUGAAGGCAUAGG | CYP4Z1 | -0.756
UGAGAACCACCUAUAGGCU | LOC728587 | 0.8751
UUGAGGAAUUGUUAAAAGC | ZNF99 | 1.308
AGAAGUUCCAUUGAUCAUG | SCARB1 | -0.4596
AUAGUUUGAUAUAUCCUUG | MMP8 | -0.1547
AAACUCAUAGAUCCAUCCC | YPEL5 | -0.1676
UUGUGGGUUGCAGCAGAAG | OR7A17 | -0.0373
UUUGGUGACUCUAAUUCCU | GRXCR2 | -0.9889
UUCUUGUCCACGCCGUAGC | RELB | -0.4747
UUGGAUGUAGGCGAAGAAC | ARRDC2 | 0.8491
UCCGAUACAAACUGGACCG | ZFP64 | 0.371
AUAGGGUUGAGGACGACAG | NDST3 | 0.2046
UUUGGUAAAAACGAUUGCG | MORC3 | 0.02315
UCAUCUAAAAGGACCGAUC | VIT | 1.293
AAGGUAAUGAACGUGAUGG | GAN | -0.7798
UCUUUGCAGAGUCAUAUUC | PDLIM5 | -0.2923
UGAUGUCUAAAGUCCCUGG | C9orf69 | -0.0884
AAGAUAUAGAACACGAGGC | ARRDC1 | 0.1583
AUCGAGUUUGUAGACUUCG | CHST11 | -0.1261
UACGACUUGAUAACUUAUC | AFF4 | 0.5473
UGCAAUUACUUGUAGCUUC | LOC441347 | -0.6726
UCUUUUCACACUCCUCUCG | ARHGAP22 | 0.08952
UAUCGAUCAACACUCAUGG | OPRM1 | 0.03478
AACCGAAUGAUGACUUUGG | RPS15AP34 | 1.149
AUCAUUAUCAGAAGCUACC | LEO1 | 0.4918
AUAUAGUCCAGGUUGUUCU | PPP5C | -0.6156
ACUAGCUGAAUUAUCAUCC | TRAF3IP1 | -0.5276
UUCUUGUGAACUUUAGUGC | CLEC3A | 2.297
UGGAUUUUGAGUUUCGGGC | LRRC37A17P | 0.04707
UUAAUGUGCAGAGCUAUGU | LGALS4 | 1.154
UAUGGUUGCAUUCUCGUCU | HIST1H2BK | 1.17
UAAGGGAGUCAUGAGAACC | SCML4 | -1.262
UCGUGGACCUUGUCAGUGG | MRGPRD | -0.03154
AAGUGUUCUAAUGUUAGCC | MED6 | 0.6173
UUUGUUAUGUGCCUCAAGC | ZNF385A | 0.06316
UUUCUCUCCCGAGACAGCG | SRSF3 | 1.119
UUGGUCGAUACCUAUAUGU | PRICKLE2 | 0.1333
UUAGUUUCUUCGUCUGUCU | POLR3D | 0.3272
AAGCGAAAAAUUAACAUCC | SLC22A2 | 0.02595
AAAGGUUCUGGGACAAGAC | RPN2 | -1.41
AAAGGAUCCGUUCAUCUCC | CHGA | 0.6478
UCUGGGUGGAUGAUGAAUG | CDHR5 | -0.3097
UUCCGGGUAAUCAUCAAUC | C12orf56 | 0.1355
ACUGUGAUCACAGUGGUUG | C1R | 0.6751
AUACUGAGCAGUUGGUUGC | MAML2 | -0.2905
UAGGUACCGCUGAACAUCC | DNAH7 | 1.096

4 of the entries, repeated:

- UACGACUUGAUAACUUAUC against AFF4 | seed-corrected z-score 0.5473
- UAUGAUACGGCUCUGUUUC against ZC3H18 | seed-corrected z-score -1.997
- UUCAUGUUCUGCGUGGGCG against SS18L1 | seed-corrected z-score -0.1514
- UUAGGUUGCUCCUCUUUCC against FAM193A | seed-corrected z-score 1.417